The subject of the data set is B16F10 tumor model. Description: Correlation of 68Ga-AP1 PET uptake (T/N) with efficacy of BMS-1 immunotherapy in melanoma B16F10 model. In kind it is in vivo, mice. The conditions noted are these: 68Ga-AP1 imaging on day 7 or 10 during BMS-1 treatment.

*: point of attachment. DOTA = O=C(O)CN1CCN(CC(=O)O)CCN(CC(=O)*)CCN(CC(=O)O)CC1

On to “{DOTA}-YGRKKRRQRRRCASTEEKWARLARRIAGAGGVTLDGFGGCA-OH (N-terminus assumed; cysteines drawn unpaired) [^68Ga-AP1, metal not drawn]”, for which the “T/N ratio (tumor uptake/maximum uptake in contralateral muscle), immunotherapy-ineffective group” value (immunotherapy-ineffective group) was 2.32±0.5997. For the same substance, the “T/N ratio (tumor uptake/maximum uptake in contralateral muscle), immunotherapy-effective group” value (tumor volume < 1000 mm^3 on day 16) came out at 1.11±0.2362.

Source of the values: patent US20240131207A1, “NUCLIDE-LABELED INHIBITORY PEPTIDE, AND PREPARATION METHOD THEREFOR AND USE THEREOF” (SUZHOU UNIVERSITY, priority 2022, published 2024).
